Assay results taken from publication PMC3707915.
Results are given in words; binding and its absence hold for the method and conditions named. Binding seen in cells or lysates may run through a third protein. Here binding means that the protein was enriched with, or labelled near, the bait; the list need not be complete.

The chains behind the UniProt entries cited, without tags or fusion partners. Where a name states a change or a piece, a line headed by the entry shows the natural chain unless it says otherwise.
UniProt P39938: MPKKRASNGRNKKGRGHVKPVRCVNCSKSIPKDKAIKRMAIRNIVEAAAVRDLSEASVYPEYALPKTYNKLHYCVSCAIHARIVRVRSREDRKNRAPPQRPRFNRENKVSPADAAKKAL

T1: Arx1-TAP (S. cerevisiae) (UniProt Q03862)
T1 sequence: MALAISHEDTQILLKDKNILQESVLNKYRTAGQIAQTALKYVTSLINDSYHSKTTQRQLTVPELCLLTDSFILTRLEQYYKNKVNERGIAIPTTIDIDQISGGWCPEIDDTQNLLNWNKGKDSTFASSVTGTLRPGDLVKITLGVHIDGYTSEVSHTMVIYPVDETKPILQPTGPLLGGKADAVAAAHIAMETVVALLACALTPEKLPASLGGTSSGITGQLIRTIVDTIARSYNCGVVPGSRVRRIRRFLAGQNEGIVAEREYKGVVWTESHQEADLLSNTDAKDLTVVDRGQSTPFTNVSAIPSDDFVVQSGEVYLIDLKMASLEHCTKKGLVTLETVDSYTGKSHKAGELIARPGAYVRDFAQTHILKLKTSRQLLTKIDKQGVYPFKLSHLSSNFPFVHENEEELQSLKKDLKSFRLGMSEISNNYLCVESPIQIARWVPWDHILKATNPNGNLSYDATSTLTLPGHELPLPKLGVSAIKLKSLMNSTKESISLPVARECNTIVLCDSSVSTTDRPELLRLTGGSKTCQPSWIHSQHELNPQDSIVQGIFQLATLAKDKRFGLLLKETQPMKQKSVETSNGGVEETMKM

B1: Nmd3 (protein, UniProt P38861 1-518)
chain: MEFTPIDPHQHQNAATLLCCNCGTPIDGSTGLVMCYDCIKLTVDITQGIPREANISFCRNCERFLQPPGQWIRAELESRELLAICLRRLKGLTKVRLVDASFIWTEPHSRRIRIKLTVQGEAMTNTIIQQTFEVEYIVIAMQCPDCARSYTTNTWRATVQIRQKVPHKRTFLFLEQLILKHNAHVDTISISEAKDGLDFFYAQKNHAVKMIDFLNAVVPIKHKKSEELISQDTHTGASTYKFSYSVEIVPICKDDLVVLPKKLAKSMGNISQFVLCSKISNTVQFMDPTTLQTADLSPSVYWRAPFNALADVTQLVEFIVLDVDSTGISRGNRVLADITVARTSDLGVNDQVYYVRSHLGGICHAGDSVMGYFIANSNYNSDLFDGLNIDYVPDVVLVKKLYQRKSKKSRHWKLKRMAKEHKDIDASLDYNSRAQKQEMERAEKDYELFLQELEEDAELRQSVNLYKNREANVPPEEHEMDEDEDEDAPQINIDELLDELDEMTLEDGVENTPVESQQ
B2: phospho-stalk protein 1A (protein, UniProt P05318 1-106)
chain: MSTESALSYAALILADSEIEISSEKLLTLTNAANVPVENIWADIFAKALDGQNLKDLLVNFSAGAAAPAGVAGGVAGGEAGEAEAEKEEEEAKEESDDDMGFGLFD
B3: phospho-stalk protein 1B (protein, UniProt P10622 1-106)
chain: MSDSIISFAAFILADAGLEITSDNLLTITKAAGANVDNVWADVYAKALEGKDLKEILSGFHNAGPVAGAGAASGAAAAGGDAAAEEEKEEEAAEESDDDMGFGLFD
B4: phospho-stalk protein 2A (protein, UniProt P05319 1-106)
chain: MKYLAAYLLLNAAGNTPDATKIKAILESVGIEIEDEKVSSVLSALEGKSVDELITEGNEKLAAVPAAGPASAGGAAAASGDAAAEEEKEEEAAEESDDDMGFGLFD
B5: phospho-stalk protein 2B (protein, UniProt P02400 1-110)
chain: MKYLAAYLLLVQGGNAAPSAADIKAVVESVGAEVDEARINELLSSLEGKGSLEEIIAEGQKKFATVPTGGASSAAAGAAGAAAGGDAAEEEKEEEAKEESDDDMGFGLFD
B6: Alb1 (protein, UniProt P47019 1-175)
chain: MPSKNSINRPKLTSNLHHKVHSLNKKRAQRERAGLLKPARSSVNSKSGEIKSVALDLYFQNKKNESQNSTAVTLQNASSSPASITTRTLSKKRAKKIERNLKYATQRKLLVDASAKLEDEMDIDLDGGKKVKENEKKSSLTLVKEALWSVIDDTASQGLIIENGQGTTLGGPFFP

Target: T1, Arx1-TAP (S. cerevisiae)
Assay: affinity purification with mass spectrometry; TAP-tagged LSU biogenesis factor and associated pre-ribosomal particles purified in one step from total yeast cellular extract on rabbit IgG coupled magnetic beads, 1 h at 4°C, MB buffer (20 mM Tris HCl pH 8, 200 or 300 mM KCl, 5 mM MgOAc) with 0.5% Triton X-100 and 0.1% Tween 20; eluates compared pair wise by semi-quantitative LC-MS/MS with iTRAQ reagents; for Nog1-, Nog2- and Rsa4-TAP wild type against strains in which RPL25, RPL2, RPL43 or RPL21 was shut down for 4 h in glucose

binding, binds:
B1, B2, B3, B4, B5, B6

Target: rpS26-FLAG (S. cerevisiae) (UniProt P39938)
Assay: affinity purification with mass spectrometry; rpS26-FLAG and associated 80S ribosomes purified in one step from total yeast cellular extract on anti-FLAG M2 sepharose beads, 1 h at 4°C, MB buffer with 0.5% Triton X-100 and 0.1% Tween; eluates compared pair wise with LSU precursor particles by semi-quantitative LC-MS/MS with iTRAQ reagents

binding, binds:
B2, B3, B4, B5
